Measured values from paper PMC10065074.
No constants are given. Whether binding was seen depends on the method and setting. Binding seen in cells or lysates may run through a third protein. Some entries that bind do so weakly or less than the wild type.

Amino acid sequences for entries named in this document (tags omitted). A change or cut given only in a name is not applied to a line headed by its entry. Residues count along the entry.
UniProt Q9BTU6: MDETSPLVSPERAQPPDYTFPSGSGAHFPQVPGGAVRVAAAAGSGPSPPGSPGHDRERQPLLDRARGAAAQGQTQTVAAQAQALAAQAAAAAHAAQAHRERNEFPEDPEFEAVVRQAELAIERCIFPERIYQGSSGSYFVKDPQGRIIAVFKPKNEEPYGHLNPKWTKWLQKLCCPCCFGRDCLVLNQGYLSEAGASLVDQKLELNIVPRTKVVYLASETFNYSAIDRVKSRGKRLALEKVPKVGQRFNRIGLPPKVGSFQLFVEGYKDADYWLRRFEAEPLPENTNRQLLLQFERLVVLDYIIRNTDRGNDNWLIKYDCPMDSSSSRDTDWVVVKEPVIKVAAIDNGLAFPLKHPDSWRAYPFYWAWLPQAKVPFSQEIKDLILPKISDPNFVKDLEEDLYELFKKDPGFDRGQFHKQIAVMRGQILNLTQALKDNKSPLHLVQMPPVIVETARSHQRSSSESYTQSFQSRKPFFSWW
UniProt P10451, residues 17-314: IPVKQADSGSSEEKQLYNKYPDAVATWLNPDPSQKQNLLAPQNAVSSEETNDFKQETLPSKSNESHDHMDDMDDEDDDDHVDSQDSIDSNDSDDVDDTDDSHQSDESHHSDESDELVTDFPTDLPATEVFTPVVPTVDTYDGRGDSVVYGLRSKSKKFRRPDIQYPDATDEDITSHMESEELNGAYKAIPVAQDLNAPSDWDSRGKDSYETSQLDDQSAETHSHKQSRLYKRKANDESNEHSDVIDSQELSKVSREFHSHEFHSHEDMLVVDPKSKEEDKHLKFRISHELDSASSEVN
UniProt P05556: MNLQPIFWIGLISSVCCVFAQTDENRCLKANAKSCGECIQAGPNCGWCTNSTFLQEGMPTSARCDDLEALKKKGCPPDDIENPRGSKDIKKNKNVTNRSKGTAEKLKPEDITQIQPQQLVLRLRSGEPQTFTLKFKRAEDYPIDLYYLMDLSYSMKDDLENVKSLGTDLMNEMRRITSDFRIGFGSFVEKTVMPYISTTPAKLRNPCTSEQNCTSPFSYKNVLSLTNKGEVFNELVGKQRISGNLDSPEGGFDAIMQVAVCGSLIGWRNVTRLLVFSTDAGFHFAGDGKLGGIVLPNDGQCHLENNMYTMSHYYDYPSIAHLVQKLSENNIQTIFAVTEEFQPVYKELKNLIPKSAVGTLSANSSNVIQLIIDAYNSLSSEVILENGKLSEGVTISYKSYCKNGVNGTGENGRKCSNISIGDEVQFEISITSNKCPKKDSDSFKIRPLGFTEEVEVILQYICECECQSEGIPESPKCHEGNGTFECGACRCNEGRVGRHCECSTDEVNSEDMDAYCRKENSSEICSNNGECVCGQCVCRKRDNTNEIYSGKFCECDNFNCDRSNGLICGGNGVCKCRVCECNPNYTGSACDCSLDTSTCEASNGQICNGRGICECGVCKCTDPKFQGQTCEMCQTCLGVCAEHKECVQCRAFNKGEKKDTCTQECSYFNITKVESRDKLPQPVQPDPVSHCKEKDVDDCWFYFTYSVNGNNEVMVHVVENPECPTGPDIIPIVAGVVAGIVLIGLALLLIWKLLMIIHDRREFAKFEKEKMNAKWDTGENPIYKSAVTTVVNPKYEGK
UniProt P35579: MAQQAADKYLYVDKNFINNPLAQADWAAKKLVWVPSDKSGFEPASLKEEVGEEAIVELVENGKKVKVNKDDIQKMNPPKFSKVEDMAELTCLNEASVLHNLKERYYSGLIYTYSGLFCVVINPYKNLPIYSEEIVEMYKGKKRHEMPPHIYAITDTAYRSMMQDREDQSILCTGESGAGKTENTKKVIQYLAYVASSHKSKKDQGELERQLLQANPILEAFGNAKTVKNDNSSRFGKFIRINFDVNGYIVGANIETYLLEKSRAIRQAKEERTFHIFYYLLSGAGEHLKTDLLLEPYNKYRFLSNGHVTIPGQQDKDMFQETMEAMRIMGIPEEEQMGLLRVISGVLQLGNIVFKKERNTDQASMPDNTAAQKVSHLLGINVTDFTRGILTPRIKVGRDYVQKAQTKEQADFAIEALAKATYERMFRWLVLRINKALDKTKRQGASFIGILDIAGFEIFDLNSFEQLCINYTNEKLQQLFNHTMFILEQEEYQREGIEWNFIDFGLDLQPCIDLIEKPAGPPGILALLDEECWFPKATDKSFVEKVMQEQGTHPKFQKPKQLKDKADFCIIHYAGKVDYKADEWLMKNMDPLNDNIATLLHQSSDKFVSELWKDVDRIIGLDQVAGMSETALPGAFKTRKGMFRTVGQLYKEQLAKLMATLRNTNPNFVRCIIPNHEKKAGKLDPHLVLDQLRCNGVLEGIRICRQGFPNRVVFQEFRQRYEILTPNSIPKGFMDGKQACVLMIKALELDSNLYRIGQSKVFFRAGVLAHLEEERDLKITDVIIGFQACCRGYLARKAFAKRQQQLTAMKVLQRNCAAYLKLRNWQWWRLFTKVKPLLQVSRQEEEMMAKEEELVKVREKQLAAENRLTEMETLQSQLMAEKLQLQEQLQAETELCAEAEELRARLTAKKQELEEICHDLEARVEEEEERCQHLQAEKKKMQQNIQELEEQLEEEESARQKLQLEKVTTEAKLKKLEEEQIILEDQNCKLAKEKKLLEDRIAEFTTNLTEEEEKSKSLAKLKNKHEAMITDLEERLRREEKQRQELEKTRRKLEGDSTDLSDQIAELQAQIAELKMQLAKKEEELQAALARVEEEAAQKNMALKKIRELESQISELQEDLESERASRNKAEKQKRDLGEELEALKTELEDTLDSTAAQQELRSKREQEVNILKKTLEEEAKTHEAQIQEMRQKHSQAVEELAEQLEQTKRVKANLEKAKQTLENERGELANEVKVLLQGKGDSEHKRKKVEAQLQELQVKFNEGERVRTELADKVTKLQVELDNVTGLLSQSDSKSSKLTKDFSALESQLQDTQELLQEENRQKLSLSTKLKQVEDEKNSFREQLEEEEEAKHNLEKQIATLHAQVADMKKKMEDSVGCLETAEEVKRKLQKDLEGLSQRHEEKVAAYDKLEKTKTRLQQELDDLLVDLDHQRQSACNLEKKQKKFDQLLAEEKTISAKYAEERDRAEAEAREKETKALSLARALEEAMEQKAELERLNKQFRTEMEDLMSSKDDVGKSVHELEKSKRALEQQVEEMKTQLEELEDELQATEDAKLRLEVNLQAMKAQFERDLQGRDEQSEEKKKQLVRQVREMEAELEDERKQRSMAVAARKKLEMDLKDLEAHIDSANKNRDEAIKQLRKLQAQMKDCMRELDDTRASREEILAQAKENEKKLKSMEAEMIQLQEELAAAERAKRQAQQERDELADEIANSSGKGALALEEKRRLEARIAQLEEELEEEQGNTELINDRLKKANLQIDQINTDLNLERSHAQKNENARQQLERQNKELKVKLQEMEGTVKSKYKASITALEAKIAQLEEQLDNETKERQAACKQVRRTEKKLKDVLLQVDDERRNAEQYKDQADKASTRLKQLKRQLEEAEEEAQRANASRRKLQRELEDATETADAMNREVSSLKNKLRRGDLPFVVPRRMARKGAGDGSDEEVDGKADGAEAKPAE
UniProt P16070, residues 21-742: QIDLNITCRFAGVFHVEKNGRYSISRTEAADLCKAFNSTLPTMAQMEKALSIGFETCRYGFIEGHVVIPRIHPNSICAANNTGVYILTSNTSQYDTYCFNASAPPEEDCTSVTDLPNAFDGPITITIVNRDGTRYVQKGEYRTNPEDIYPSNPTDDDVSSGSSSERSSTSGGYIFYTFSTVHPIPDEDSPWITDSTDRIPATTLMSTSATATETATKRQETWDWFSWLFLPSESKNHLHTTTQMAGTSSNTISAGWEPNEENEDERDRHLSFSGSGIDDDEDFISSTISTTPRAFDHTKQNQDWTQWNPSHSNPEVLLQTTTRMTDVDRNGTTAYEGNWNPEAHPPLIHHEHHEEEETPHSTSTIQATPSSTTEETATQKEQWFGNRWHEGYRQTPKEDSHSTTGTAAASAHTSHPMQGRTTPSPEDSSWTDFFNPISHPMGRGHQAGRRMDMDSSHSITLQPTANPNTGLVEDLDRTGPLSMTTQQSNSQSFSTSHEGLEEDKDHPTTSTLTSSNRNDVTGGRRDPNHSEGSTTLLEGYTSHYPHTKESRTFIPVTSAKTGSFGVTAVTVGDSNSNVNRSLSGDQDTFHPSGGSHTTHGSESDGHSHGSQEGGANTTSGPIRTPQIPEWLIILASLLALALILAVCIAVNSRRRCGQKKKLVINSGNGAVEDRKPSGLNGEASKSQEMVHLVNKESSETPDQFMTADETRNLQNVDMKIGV

What was measured:
[1] = target: hemagglutinin-tagged (HA-tagged) PI4K2A (human) (UniProt Q9BTU6); experiment: co-IP; anti-HA immunoprecipitates from H1299 cells transfected with HA-tagged PI4K2A; RIPA lysis; Protein G agarose; WB; IgG control IP
[2] = target: biotin-labeled recombinant SPP1 (UniProt P10451); experiment: pull-down; biotin-labeled recombinant SPP1 added to the culture medium of H1299 cells (100 ng/mL) for 4 hours; cells lysed in RIPA buffer; streptavidin agarose beads; WB; only the target purified
[3] = target: MYC-tagged PI4K2A, full-length (1–479) (human) (UniProt Q9BTU6); experiment: co-IP; H1299 cells transfected with MYC-tagged PI4K2A constructs; RIPA lysis; Protein G agarose; WB; IgG control IP

In the case of “integrin-β1 (from UniProt P05556 21-798) (receptor)”, the binding [1] is reported as “binds” and the binding [2] is reported as “binds”.
With “myosin heavy chain 9 (from UniProt P35579 1-1960)” the binding [3] was “binds”.
With “CD44 molecule (from UniProt P16070 21-742) (receptor)” the binding [1] was “binds” and the binding [2] was “binds”.
